Reference: patent publication US20200278343A1, “DIRECT VISUALIZATION OF INTEGRATED STRESS RESPONSE ACTIVITY” (priority 2019, published 2020)
At least one compound was matched to its structure with a doubt left.

System: protein synthesis (mRNA translation) in ARPE-19 cells
Assay: Metabolic labeling (35S Met/Cys incorporation) in i148HA and i159HA ARPE-19 cells
Assay type: cell-based
Settings: 100 ng/ml Dox treatment of i159HA cells
Protocol: Having isolated stably transduced ARPE-19 cell populations, the inventors confirmed that that anti-HA immunoreactive polypeptides of the expected size for UL148 (i148^HA) or Rh159 (i159^HA) were induced upon treatment with 100 ng/ml doxycycline (Dox). Furthermore, expression of neither protein caused any overt reduction in cell viability or number, as measured by trypan blue exclusion following 24 h of Dox induction. The inventors therefore concluded that the i148^HA and i159^HA ARPE-19 cells were suitable to address whether UL148 might affect rates of mRNA translation in metabolic labeling studies. For these experiments, i148^HA and i159^HA cells were induced (or mock induced) for transgene expression for 24 h and then incubated in the presence of ^35S-labeled methionine and cysteine for 30 min. In parallel, labeling was also carried out using i159^HA cells that were incubated in the presence of either thapsigargin (Tg) or carrier alone, so as to provide positive and negative controls, respectively, for UPR induction.
Metabolic labeling. i159^HA or i148^HA cells were seeded at 2×10^5 cells per well in a 24-well cluster plate in Gibco Opti-MEM reduced serum medium (Thermo Fisher) supplemented with 2.5% tetracycline (Tet)-free FBS (Clontech 631101). […] The relative signal per lane was calculated using Bio-Rad 1-D analysis software by reading the signal volume (counts·mm^2) in each lane. […]

C[C@H]1c2cccc(O)c2C(=O)C2=C(O)[C@]3(O)C(=O)C(C(N)=O)=C(O)[C@@H](N(C)C)[C@@H]3[C@@H](O)[C@@H]21 [Dox, doxycycline hyclate]
reduction in 35S incorporation: failed to cause any reduction in ^35S incorporation
